No constants are given. Whether binding was seen depends on the method and setting. In cells and extracts the contact can be indirect. Some entries that bind do so weakly or less than the wild type.
Target: STING-Flag (Stimulator of interferon genes, from pEF-BOS STING-Flag-His), Q86WV6
Experiment: co-IP; HEK-293T transfected with control siRNA (siNC) or siTRAF3, 24 h later co-transfected with cGAS and STING-Flag or control vectors for 16 h; lysates precipitated with anti-Flag beads; blot with anti-TBK1, anti-p-TBK1 (Ser172), anti-TRAF3
Conditions: remark: other sources report otherwise

B1: TANK-binding kinase 1 (TBK1, endogenous), Q9UHD2 1-729 (protein)
chain: MQSTSNHLWLLSDILGQGATANVFRGRHKKTGDLFAIKVFNNISFLRPVDVQMREFEVLKKLNHKNIVKLFAIEEETTTRHKVLIMEFCPCGSLYTVLEEPSNAYGLPESEFLIVLRDVVGGMNHLRENGIVHRDIKPGNIMRVIGEDGQSVYKLTDFGAARELEDDEQFVSLYGTEEYLHPDMYERAVLRKDHQKKYGATVDLWSIGVTFYHAATGSLPFRPFEGPRRNKEVMYKIITGKPSGAISGVQKAENGPIDWSGDMPVSCSLSRGLQVLLTPVLANILEADQEKCWGFDQFFAETSDILHRMVIHVFSLQQMTAHKIYIHSYNTATIFHELVYKQTKIISSNQELIYEGRRLVLEPGRLAQHFPKTTEENPIFVVSREPLNTIGLIYEKISLPKVHPRYDLDGDASMAKAITGVVCYACRIASTLLLYQELMRKGIRWLIELIKDDYNETVHKKTEVVITLDFCIRNIEKTVKVYEKLMKINLEAAELGEISDIHTKLLRLSSSQGTIETSLQDIDSRLSPGGSLADAWAHQEGTHPKDRNVEKLQVLLNCMTEIYYQFKKDKAERRLAYNEEQIHKFDKQKLYYHATKAMTHFTDECVKKYEAFLNKSEEWIRKMLHLRKQLLSLTNQCFDIEEEVSKYQEYTNELQETLPQKMFTASSGIKHTMTPIYPSSNTLVEMTLGMKKLKEEMEGVVKELAENNHILERFGSLTMDGGLRNVDCL
- binding: binds
